Out of some 53,000 sequences screened, about 3,700 (7%) were called active.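 Rule for the calls: active = gene knockdowns whose robust z-score for IL-1 alpha signal is at least 2 or at most -2, so actives lie on both sides; inactive = the rest.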 The list shows a part of the results.
experiment: Components of the Cytosolic LPS Sensing Pathway: Gene Identification via Genome-wide siRNA Screen; conditions: RAW264.7 macrophages, IL-1a HTRF, actives lie on both sides, screened at 100 nM (by protocol), cells primed 5 h with Pam3CSK4 first;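 note: robust z of the log signal after scaling to non-targeting control siRNA wells of the plate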
How it was run: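 RAW264.7; siRNA 100 nM final, RNAiMAX, 48h 37 degrees C; Pam3CSK4 5 h; LipidA + TransIT-TKO 24 h; IL-1a HTRF; CellTiter-Glo viability; robust z vs negative-control median.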

Sequence	z-score
GGAGGUCUUCAGUUCUUACTT against Fntb	inactive: -1.08
CGCUACGACUAGAGUUUGCTT against Rbpms	active: 2.36
GGACUUAGACAUCCACCUCTT against Llcfc1	inactive: -1.64
GGAAUUCCCAUAAAUCAGUTT against Nadk	inactive: -1.17
GGUCAAUUUGGUUUGUGAATT against Cenpa	inactive: -0.374
GGGAGAAGGUAAAAGAAAATT against Ccdc73	inactive: -0.488
GGCCAUACGGACCAUGUAUTT against Slc25a19	inactive: -1.25
CGAUUCCAGAAGAUCAUGUTT against Ott	inactive: -1.28
GGUAAACCUGUGUUUUGAUTT against Cyfip2	inactive: -1.54
GGCUGUAUGAAUCAAAGGATT against Nr5a2	inactive: 1.37
GGAAAUCGAAACUGUCUGCTT against Rabepk	inactive: -0.085
GCCUACGAGGACAGUACAATT against Mst1r	inactive: 1.16
CCGAAAUAAAGGAGUUGAUTT against Rab3gap2	inactive: -0.249
GGCAUAUGCAUGUUAUAUCTT against Fbxw21	inactive: -1.34
CCCAUCUUUCAUCAGCGACTT against Heg1	inactive: -0.668
GGCUGGUCUCCAAACCCAATT against F13b	inactive: 0.229
GCCACGUAGACUGAUAUAGTT against Irf5	inactive: -1.16
GGAAAGACUUGAUGGUCUGTT against Nap1l1	inactive: 0.416
CCCAUCCAAUGCUUAUGUGTT against Scg5	inactive: -0.421
GGACUCCCUGAGAACCUGATT against Coil	inactive: -0.317
GGCCAUCGAGGACUCUUCUTT against Dnaaf4	inactive: -0.402
CGGCAUCUGUAAGAACGUGTT against Adamts7	inactive: -0.934
CCACGAGUGAAUUAUAAUCTT against Zfp273	inactive: -1.31
GGUCUGCAUCGACUCUGAGTT against Atox1	inactive: -1.19
CCGAAAGAAAUGGACCCGATT against Pou2f2	inactive: 0.516
GGACGAUUUAAGGAUUUUUTT against Dcun1d1	active: -2.4
GCUAGACCUAAGGAGCAAATT against Axin1	active: 3.59
CGAAAUCUUUUCUAACCACTT against Drd4	active: 6.59
GGUUCUGAACCAGCUGGAGTT against Chd3	active: 2.72
GCAUCCCUUUGAUCGCUACTT against Serpina11	inactive: -1.81

Exported as comma-separated lines: entries from further up
Sequence,z-score
GGAAAUCGAAACUGUCUGCTT against Rabepk,inactive: -0.085
GCCUACGAGGACAGUACAATT against Mst1r,inactive: 1.16

From PubChem BioAssay AID1508600 (Functional Genomics Laboratory (NCATS/FGL), 2020)
